Source: PubChem BioAssay AID248 (DTP/NCI, 2004)
The list does not hold the whole screen: its compounds were picked by chemical class. Other doses and runs of a compound may be missing. T/C is the treated group as % of the vehicle group. Where survival is the endpoint, this PubChem deposit counts one and a half times the control or more as active, and values a quarter to a half above the control carry no call in these data; other NCI protocols may use other cut-offs. Some T/C values are marked as having no survivor count here; that says nothing about deaths at the dose. Schedules are NCI's codes, taken here to give the interval after Q, in days (D) or hours (H), and the number of doses after X. Some doses were run more than once; the results are listed from low to high. Some schedules carry Z or #; the key to these is not given.

System: L1210 leukemia ip in BDF1 mice, survival T/C
Experiment: NCI In Vivo Anticancer Drug Screen. Data for tumor model L1210 Leukemia (intraperitoneal) in B6D2F1 (BDF1) mice
Conditions: T/C endpoint: mean survival time, vehicle: saline, higher T/C = longer survival

Q: With `O[C@@H](CNCCCl)[C@@H](O)CNCCCl` as the compound, how does the T/C (dose: 0.25 mg/kg/injection, schedule: Q01DX009 (ip)) read?
A: The T/C was 111 % of control [survivor count not shown].

Q: And the T/C (dose: 0.25 mg/kg/injection, schedule: Q01DX Z (ip))?
A: Its T/C is 114 % of control [survivor count not shown].

Q: What about the T/C (dose: 0.3 mg/kg/injection, schedule: Q01DX009 (ip)) of the same compound?
A: Its T/C is 114 % of control [survivor count not shown].

Q: What about the T/C (dose: 0.5 mg/kg/injection, schedule: Q01DX009 (ip)) of the same compound?
A: Its T/C is 151 % of control [survivor count not shown].

Q: What about the T/C (dose: 0.5 mg/kg/injection, schedule: Q01DX Z (ip)) of the same compound?
A: The T/C was 104 % of control [survivor count not shown].

Q: What about the T/C (dose: 0.6 mg/kg/injection, schedule: Q01DX009 (ip)) of the same compound?
A: The T/C was 109 % of control [survivor count not shown].

Q: What about the T/C (dose: 1.0 mg/kg/injection, schedule: Q01DX001 (ip)) of the same compound?
A: The T/C was 110 % of control [survivor count not shown].

Q: What about the T/C (dose: 1.0 mg/kg/injection, schedule: Q01DX009 (ip)) of the same compound?
A: The T/C was 119 [survivor count not shown] and 170 % of control [survivor count not shown].

Q: What about the T/C (dose: 1.0 mg/kg/injection, schedule: Q01DX Z (ip)) of the same compound?
A: Its T/C is 132 % of control [survivor count not shown].

Q: And the T/C (dose: 1.25 mg/kg/injection, schedule: Q01DX009 (ip))?
A: Its T/C is 123 % of control [survivor count not shown].

Q: What about the T/C (dose: 1.25 mg/kg/injection, schedule: Q01DX009 (oral)) of the same compound?
A: The T/C was 123 % of control [survivor count not shown].

Q: What about the T/C (dose: 1.25 mg/kg/injection, schedule: Q01DX Z (ip)) of the same compound?
A: The T/C was 129 % of control [survivor count not shown].

Q: What about the T/C (dose: 2.0 mg/kg/injection, schedule: Q01DX009 (ip)) of the same compound?
A: The T/C was 131 [survivor count not shown] and 239 % of control [survivor count not shown].

Q: What about the T/C (dose: 2.0 mg/kg/injection, schedule: Q01DX Z (ip)) of the same compound?
A: Its T/C is 126 [survivor count not shown] and 130 % of control [survivor count not shown].

Q: What about the T/C (dose: 2.5 mg/kg/injection, schedule: Q01DX001 (ip)) of the same compound?
A: The T/C was 105 % of control [survivor count not shown].

Q: And the T/C (dose: 2.5 mg/kg/injection, schedule: Q01DX001 (oral))?
A: Its T/C is 105 % of control [survivor count not shown].

Q: What about the T/C (dose: 2.5 mg/kg/injection, schedule: Q01DX009 (ip)) of the same compound?
A: Its T/C is 132 % of control [survivor count not shown].

Q: What about the T/C (dose: 2.5 mg/kg/injection, schedule: Q01DX009 (oral)) of the same compound?
A: The T/C was 124 % of control [survivor count not shown].

Q: What about the T/C (dose: 2.5 mg/kg/injection, schedule: Q01DX Z (ip)) of the same compound?
A: The T/C was 150 % of control [survivor count not shown].

Q: What about the T/C (dose: 4.0 mg/kg/injection, schedule: Q01DX009 (ip)) of the same compound?
A: Its T/C is 134 [survivor count not shown] and 148 % of control [survivor count not shown].

Q: And the T/C (dose: 4.0 mg/kg/injection, schedule: Q01DX015 (ip))?
A: Its T/C is 133 % of control [survivor count not shown].

Q: And the T/C (dose: 4.0 mg/kg/injection, schedule: Q01DX Z (ip))?
A: The T/C was 145 % of control [survivor count not shown].

Q: What about the T/C (dose: 5.0 mg/kg/injection, schedule: Q01DX001 (ip)) of the same compound?
A: The T/C was 121 [survivor count not shown], 126 [survivor count not shown], 127 % of control [survivor count not shown].

Q: What about the T/C (dose: 5.0 mg/kg/injection, schedule: Q01DX001 (oral)) of the same compound?
A: The T/C was 102 [survivor count not shown] and 110 % of control [survivor count not shown].

Q: What about the T/C (dose: 5.0 mg/kg/injection, schedule: Q01DX009 (ip)) of the same compound?
A: The T/C was 156 % of control [survivor count not shown].

Q: And the T/C (dose: 5.0 mg/kg/injection, schedule: Q01DX009 (oral))?
A: Its T/C is 134 [survivor count not shown] and 140 % of control [survivor count not shown].

Q: And the T/C (dose: 5.0 mg/kg/injection, schedule: Q01DX Z (ip))?
A: Its T/C is 195 % of control [survivor count not shown].

Q: And the T/C (dose: 8.0 mg/kg/injection, schedule: Q01DX009 (ip))?
A: Its T/C is 160 % of control [survivor count not shown].

Q: What about the T/C (dose: 8.0 mg/kg/injection, schedule: Q01DX015 (ip)) of the same compound?
A: Its T/C is 176 % of control [survivor count not shown].

Q: What about the T/C (dose: 8.0 mg/kg/injection, schedule: Q01DX Z (ip)) of the same compound?
A: The T/C was 167 [survivor count not shown] and 168 % of control [survivor count not shown].

Q: And the T/C (dose: 10.0 mg/kg/injection, schedule: Q01DX001 (ip))?
A: The T/C was 116 [survivor count not shown], 129 [survivor count not shown], 131 % of control [survivor count not shown].

Q: What about the T/C (dose: 10.0 mg/kg/injection, schedule: Q01DX001 (oral)) of the same compound?
A: Its T/C is 107 [survivor count not shown] and 135 % of control [survivor count not shown].

Q: And the T/C (dose: 10.0 mg/kg/injection, schedule: Q01DX009 (ip))?
A: Its T/C is 174 % of control [survivor count not shown].

Q: What about the T/C (dose: 10.0 mg/kg/injection, schedule: Q01DX009 (oral)) of the same compound?
A: The T/C was 142 [survivor count not shown] and 148 % of control [survivor count not shown].

Q: And the T/C (dose: 10.0 mg/kg/injection, schedule: Q01DX Z (ip))?
A: The T/C was 164 % of control [survivor count not shown].

Q: What about the T/C (dose: 16.0 mg/kg/injection, schedule: Q01DX009 (ip)) of the same compound?
A: The T/C was 214 % of control [survivor count not shown].

Q: And the T/C (dose: 16.0 mg/kg/injection, schedule: Q01DX015 (ip))?
A: Its T/C is 126 [survivor count not shown] and 190 % of control [survivor count not shown].

Q: And the T/C (dose: 16.0 mg/kg/injection, schedule: Q01DX Z (ip))?
A: The T/C was 209 % of control [survivor count not shown].

Q: And the T/C (dose: 20.0 mg/kg/injection, schedule: Q01DX001 (ip))?
A: Its T/C is 131 [survivor count not shown], 140 [survivor count not shown], 157 % of control [survivor count not shown].

Q: And the T/C (dose: 20.0 mg/kg/injection, schedule: Q01DX001 (oral))?
A: The T/C was 95 [survivor count not shown] and 113 % of control [survivor count not shown].

Q: And the T/C (dose: 20.0 mg/kg/injection, schedule: Q01DX009 (ip))?
A: Its T/C is 184 % of control [survivor count not shown].

Q: What about the T/C (dose: 20.0 mg/kg/injection, schedule: Q01DX009 (oral)) of the same compound?
A: Its T/C is 120 [survivor count not shown] and 134 % of control [survivor count not shown].

Q: And the T/C (dose: 32.0 mg/kg/injection, schedule: Q01DX015 (ip))?
A: The T/C was 186 % of control [survivor count not shown].

Q: And the T/C (dose: 32.0 mg/kg/injection, schedule: Q01DX Z (ip))?
A: The T/C was 130 [survivor count not shown] and 205 % of control [survivor count not shown].

Q: What about the T/C (dose: 40.0 mg/kg/injection, schedule: Q01DX001 (ip)) of the same compound?
A: The T/C was 144 [survivor count not shown], 148 [survivor count not shown], 201 % of control [survivor count not shown].

Q: And the T/C (dose: 40.0 mg/kg/injection, schedule: Q01DX001 (oral))?
A: The T/C was 132 [survivor count not shown] and 137 % of control [survivor count not shown].

Q: And the T/C (dose: 40.0 mg/kg/injection, schedule: Q01DX009 (ip))?
A: Its T/C is 134 % of control [survivor count not shown].

Q: And the T/C (dose: 40.0 mg/kg/injection, schedule: Q01DX009 (oral))?
A: The T/C was 89 [survivor count not shown] and 145 % of control [survivor count not shown].

Q: And the T/C (dose: 54.0 mg/kg/injection, schedule: Q01DX015 (ip))?
A: The T/C was 116 % of control [survivor count not shown].

Q: And the T/C (dose: 75.0 mg/kg/injection, schedule: Q01DX001 (ip))?
A: The T/C was 140 % of control [survivor count not shown].

Q: And the T/C (dose: 80.0 mg/kg/injection, schedule: Q01DX001 (ip))?
A: Its T/C is 163 % of control [survivor count not shown].

Q: What about the T/C (dose: 80.0 mg/kg/injection, schedule: Q01DX001 (oral)) of the same compound?
A: Its T/C is 128 [survivor count not shown] and 140 % of control [survivor count not shown].

Q: What about the T/C (dose: 300.0 mg/kg/injection, schedule: Q01DX001 (ip)) of the same compound?
A: The T/C was 142 % of control [survivor count not shown].
